PubChem BioAssay AID1259308 | NCATS, 2017

- Assay: 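Genes whose loss raises luciferase production in HEK293 cells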 (primary screen)
- Cells: human HEK293 embryonic kidney cells stably expressing firefly luciferase (HEK-CMV-Luc2-Hygro)
- Reagents: single siRNA against human genes, 0.8 pmol siRNA per well
- Time to read-out: 72 h
- Measurement: 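Luciferase light (ONE-Glo) measured on one replicate plate set and viability (CellTiter-Glo) on the other, scaled to a negative control siRNA, with robust z-scores and luciferase per cell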
- Reading the numbers: total luciferase, z-score: higher = more reporter protein produced
- Call rule: 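Active when the median/MAD z-score for overall luciferase is greater than 3; a gene was taken forward for validation with new siRNAs if at least two of its three siRNAs passed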
- Meaning of the calls: active = raised luciferase; inactive = no rise
In all, the deposit lists about 59,000 reagents; shown is a random part of them. Of all reagents, about 1,510 (2.6%) got an active call. 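Calls use total luciferase alone and ignore viability, so some active siRNAs may act by altering cell number.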 Entries without a mark were called inactive. Reagents against one gene are numbered here. Further read-outs or replicates are left out here.

PHKB #1 gave total luciferase, z-score 0.0977.
With knock-down of PHKB #2, the screen gave total luciferase, z-score -2.06.
PHKB #3 gave total luciferase, z-score -1.32.
For C1QBP #1, the entry reads total luciferase, z-score 0.577.
After knock-down of C1QBP #2, the screen gave total luciferase, z-score 0.0739.
C1QBP #3 scored total luciferase, z-score -0.721.
For DMPK #1 the deposit lists total luciferase, z-score -0.944.
With knock-down of DMPK #2, the record shows total luciferase, z-score 0.85.
DMPK #3 scored total luciferase, z-score 1.13.
After knock-down of JADE3 #1 the results were total luciferase, z-score 0.928.
Against JADE3 #2, the values are total luciferase, z-score 0.163.
With knock-down of JADE3 #3, the screen gave total luciferase, z-score 0.0584.
Knock-down of DUOXA1 #1 gave: total luciferase, z-score 2.3.
With knock-down of DUOXA1 #2, the screen gave total luciferase, z-score 0.321.
DUOXA1 #3 scored total luciferase, z-score 1.57.
With knock-down of RPL23 #1, the screen gave total luciferase, z-score -2.63.
RPL23 #2 showed total luciferase, z-score -1.98.
After knock-down of RPL23 #3, the screen gave total luciferase, z-score -3.14.
Depletion of PAPSS2 #1 came out at: total luciferase, z-score -0.239.
For PAPSS2 #2 the deposit lists total luciferase, z-score -0.479.
Depletion of PAPSS2 #3 came out at: total luciferase, z-score 0.574.

Laid out differently: entries from further up
gene knocked down	siRNA no.	total luciferase, z-score
PHKB	3	-1.32
C1QBP	1	0.577
C1QBP	2	0.0739
